The list shows a part of the results. These are further read-outs of the screen, such as a control signal, another cell line or another target. No call is given for them. Most of these compounds were active or inconclusive in the main read-out, so they are no random draw. Words in brackets tell the shape of the fitted curve; partial curves, single points and poor fits give uncertain potencies.
Assay: qHTS Assay to Find Inhibitors of Chronic Active B-Cell Receptor Signaling
Details: ABC-DLBCL IkBa-CBG/CBR reporter, luminescence ratio (green luciferase fused to IkBa over red control in TMD8 lymphoma cells), 4 h
How it was run: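 Compounds up to 46 uM were incubated four hours with TMD8 cells whose green CBG68 luciferase is fused to IkappaBalpha; red CBR luminescence normalised the signal, and concentration-effect curves were fitted to fusion, red and ratio data.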

[1] = measured here: CBR red luminescence, cell number
[2] = measured here: IkBa-CBG green luminescence

SMILES | AC50 [1] | AC50 [2]
O=C(N/N=C/C(Br)=C/c1ccccc1)c1ccccc1[N+](=O)[O-] | 7.94 µM [falling, partial curve] | 
Cc1ccc(NC(=O)CNc2ccc(Cl)c(Cl)c2)cc1S(=O)(=O)N(C)C | 23.1 µM [falling, single point] | 
NC(=O)N=Nc1c2[nH]c3ccccc3nc-2c2ccccc12 | 2.51 µM [falling, full curve, poor fit] | 2.82 µM [rising, full curve]
C=CC[C@@H](CC(=O)N(CCO)Cc1ccccc1)C(=O)N[C@H](COC(=O)[C@H](CC=C)CC(=O)OC(C)(C)C)Cc1c[nH]c2ccccc12 | 18.4 µM [falling, partial curve, poor fit] | 
CCOc1ccc(NC(=O)N2CCC(NC(=O)c3ccco3)CC2)cc1 | 6.31 µM [rising, single point] | 
O=C(CCCOc1cccc(Br)c1)NC1CCC(O)CC1 (stereo unspecified) | 11.2 µM [falling, partial curve, poor fit] | 
CN(C)c1ccnc2sc(C(N)=O)c(N)c12 | 32.6 µM [falling, single point] | 
C/C(=N\NC(=S)NCCc1ccccc1)c1ccc(Cl)cc1 | 6.51 µM [rising, single point] | 
COc1ccc(/C=c2/sc3n(c2=O)C(c2ccccc2OC)C2=C(N=3)c3ccccc3CC2)cc1O (stereo unspecified) | 35.5 µM [falling, single point] | 
Cc1noc(C)c1S(=O)(=O)Nc1ccc2c(c1)C(=O)N([C@H](C)CO)C[C@H](C)[C@@H](CN(C)C(=O)Nc1ccc3c(c1)OCO3)O2 | 8.2 µM [rising, partial curve, poor fit] | 
Cc1ccc(C(NC(=O)NCCCN2CCOCC2)=C(Cl)Cl)cc1F | 0.092 µM [falling, full curve, poor fit] | 
O=C(Cc1cccs1)NNC(=S)NC(=O)c1ccc(F)c(F)c1 | 1.84 µM [rising, partial curve, poor fit] | 
Cc1cc(=O)[nH]c(-c2ccc(Cl)cc2)n1 | 5.01 µM [rising, full curve] | 
Cc1ccc(NC(=O)CSc2nnc(Cn3cnc4ccccc43)o2)c(C)c1 | 35.5 µM [falling, single point] | 
COc1ccc(CNC(=O)c2ccc(NC(=O)C3=CSCCO3)cc2)cc1 | 3.98 µM [rising, full curve, poor fit] | 
O=C(NCc1ccccc1)c1cccc2c1C(=O)c1ccc(/C=C/c3ccccc3)cc1S2(=O)=O | 1.46 µM [falling, full curve] | 
COc1ccc(NC(=O)c2[nH]c(C)c(C(C)=O)c2C)cc1S(=O)(=O)N1CCOCC1 | 23.1 µM [rising, partial curve, poor fit] | 
Cc1ccc(NC(=O)CSc2n[nH]c(-c3ccncc3)n2)cc1C | 6.51 µM [falling, partial curve, poor fit] | 
COc1ccc(OC)c(-c2cc(C(=O)Nc3ccc(F)cc3F)no2)c1 | 0.631 µM [falling, full curve, poor fit] | 
COCC(=O)Nc1ccccc1-c1ccccc1 | 4.47 µM [rising, full curve, poor fit] | 
CC1CC(C)CN(C(=O)COC(=O)Cc2ccc(Cl)cc2)C1 (stereo unspecified) | 4.47 µM [falling, single point] | 

Looked up above:
Under AC50 [1], `COc1ccc(CNC(=O)c2ccc(NC(=O)C3=CSCCO3)cc2)cc1` shows 3.98 µM [rising, full curve, poor fit]
Under AC50 [1], `COc1ccc(OC)c(-c2cc(C(=O)Nc3ccc(F)cc3F)no2)c1` shows 0.631 µM [falling, full curve, poor fit]
Under AC50 [1], `Cc1ccc(NC(=O)CSc2nnc(Cn3cnc4ccccc43)o2)c(C)c1` shows 35.5 µM [falling, single point]
Under AC50 [1], `C/C(=N\NC(=S)NCCc1ccccc1)c1ccc(Cl)cc1` shows 6.51 µM [rising, single point]
Under AC50 [1], `COc1ccc(/C=c2/sc3n(c2=O)C(c2ccccc2OC)C2=C(N=3)c3ccccc3CC2)cc1O` (stereo unspecified) shows 35.5 µM [falling, single point]

(listing goes on)

SMILES | AC50 [1] | AC50 [2]
Oc1ccccc1Nc1nc(NCC2CCCO2)c2ccccc2n1 (stereo unspecified) | 35.5 µM [falling, partial curve, poor fit] | 
Cn1c(N)c(C(=O)COC(=O)c2cc(S(=O)(=O)N3CCOCC3)ccc2F)c(=O)n(C)c1=O |  | 8.2 µM [falling, partial curve, poor fit]
CCOC(=O)/C=C/C(=O)OCC(=O)NCc1ccccc1 | 23.1 µM [falling, single point] | 
Cc1ccc(-c2nc(C=Nc3ccccc3)c(O)o2)cc1 | 14.1 µM [falling, single point] | 
C=CCn1c(C)cc(C2=NNC(=NC(C)(C)C)SC2)c1C | 10.3 µM [rising, partial curve, poor fit] | 
COc1cc(C(=O)NCCOc2cc(C)cc(C)c2)cc(OC)c1OC | 35.5 µM [falling, single point] | 
CS(=O)(=O)c1ccc(-c2nn[nH]n2)cc1 | 13 µM [falling, single point] | 
CC(C)c1cc(=O)n2[nH]c(SCc3ccccc3Cl)nc2n1 | 7.94 µM [falling, partial curve] | 
Cc1ccccc1CN1CCC(n2nccc2NC(=O)c2ccc3c(c2)OCO3)CC1 | 0.501 µM [falling, full curve] | 
Cc1nc2ncccn2c1-c1csc(Nc2ccccc2)n1 | 29.1 µM [falling, single point] | 
Clc1ccc2oc(-c3ccccc3)nc2c1 | 23.1 µM [rising, partial curve, poor fit] | 
N#CC1=C(N)NC(=S)C(C(N)=O)C1c1ccccc1F (stereo unspecified) | 35.5 µM [rising, partial curve, poor fit] | 
COc1ccc(NC(=O)c2cc(S(=O)(=O)N3CCCCC3)ccc2N2CCCCC2)cn1 | 15.8 µM [falling, single point] | 
O=C(NCCC1=CCCCC1)C(=O)c1c[nH]c2ccccc12 | 20.6 µM [falling, single point] | 
Cn1cc(CN2CCC(C(=O)Nc3cccc(-c4cccc(F)c4)c3)CC2)cn1 | 4.47 µM [falling, single point] | 
C=CCOC(=O)C1=C(C)NC(SCC(=O)Nc2nccs2)=C(C#N)C1c1cccs1 (stereo unspecified) | 12.6 µM [falling, partial curve] | 
COc1ccccc1C(CNc1ccc(S(=O)(=O)N2CCCC2)cc1[N+](=O)[O-])N(C)C (stereo unspecified) | 7.94 µM [falling, partial curve, poor fit] | 
Cc1cc(C)c(C#N)c(SCc2ccccc2[N+](=O)[O-])n1 | 20.6 µM [rising, partial curve, poor fit] | 
Cc1ccc(C=Nc2ccccc2C(N)=O)cc1 | 16.4 µM [rising, single point] | 29.1 µM [falling, single point]
Cc1nn(-c2ccccc2)c(Cl)c1/C=N/NC(=O)c1[nH]ncc1Br | 0.282 µM [falling, full curve, poor fit] | 
O=C(CN1CC[n+]2c(-c3cccs3)csc21)c1ccc(-c2ccccc2)cc1 | 15.8 µM [falling, single point] | 

SMILES | AC50 [1] | AC50 [2]
Cc1ccc(-n2cnc3cc(C(=O)NCc4ccc(F)cc4)ccc32)c(C)c1 | 7.08 µM [rising, partial curve, poor fit] | 
O=C(N/N=C/c1ccco1)c1ccn[nH]1 | 12.6 µM [falling, partial curve] | 
Cc1ccc(NC(=O)NNC(=O)Cn2nc(-c3ccccc3)c(-c3ccccc3)c(C#N)c2=O)cc1 | 5.62 µM [rising, single point] | 3.16 µM [falling, partial curve, poor fit]
COc1cccc(-n2c(SCC(=O)NCc3ccco3)nnc2-c2c[nH]c3ccccc23)c1 | 7.31 µM [falling, partial curve] | 
CCC(=O)N(c1ccc(C(=O)O)cc1)c1nc(-c2ccc(OC)cc2)c(C)s1 | 10 µM [falling, partial curve] | 12.6 µM [rising, partial curve, poor fit]
CC1CCCN(C(=O)COc2ccc(-c3ccccc3)cc2)C1 (stereo unspecified) | 2.82 µM [rising, full curve, poor fit] | 
Cc1ccc(N=Nc2ccc(O)cc2)c(Br)c1 | 14.1 µM [rising, partial curve, poor fit] | 
CC1CC2=C(CC1/C=N/NC(N)=S)C(C)(C)CCC2 (stereo unspecified) | 29.1 µM [falling, single point] | 
CCOC(=O)c1c(NC(=S)N2CCN(C)CC2)sc2c1CCN(C(=O)OCC)C2 | 12.6 µM [falling, single point] | 
CCOC(=O)c1ccc(N2CN(C3CCCCC3)CNC2=S)cc1 | 8.2 µM [rising, partial curve, poor fit] | 
Cc1ccc(C(=O)CSc2nc3c([nH]2)c(=O)n(C)c(=O)n3C)cc1 | 2.51 µM [falling, partial curve] | 
CCC1Oc2nc(SC)nnc2-c2ccccc2N1C(=O)c1ccccc1 (stereo unspecified) | 16.4 µM [falling, partial curve, poor fit] | 
CC(=O)c1ccc(N2CCC(C(=O)O)CC2)cc1 | 5.01 µM [falling, single point] | 
CCOC(=O)CCc1c(C)c2ccc3c(c2oc1=O)CN(CCCO)CO3 | 1.58 µM [rising, full curve, poor fit] | 
Cc1[nH]cnc1C(=O)N/N=C/c1ccc([N+](=O)[O-])s1 | 35.5 µM [falling, single point] | 
NC(=O)[C@@H]1CC2(CC(c3cccc(NC(=O)COc4ccc(Cl)cc4)c3)=NO2)CN1C(=O)COc1ccc(Cl)cc1 (stereo partly specified) | 20 µM [falling, partial curve] | 
Nc1[nH]c(N=NC(=O)c2ccc(Cl)cc2)c2ccccc12 | 7.31 µM [falling, partial curve] | 
O=c1c(-c2cccc([N+](=O)[O-])c2)[n+]([O-])c2ccccc2n1O | 1 µM [rising, partial curve] | 
CCCCOc1ccc(CONS(=O)(=O)c2ccc(NC(C)=O)cc2)cc1Cl | 18.4 µM [falling, single point] | 
CCn1cc(C(=O)N2CCCC2)c(=O)c2cc(S(=O)(=O)N(C)C)ccc21 | 5.8 µM [rising, full curve, poor fit] | 
